According to PubChem BioAssay AID743255 (National Center for Advancing Translational Sciences (NCATS), 2014):
In all, about 390,000 compounds went through this assay and about 910 (0.23%) were called active. This list was built around the results that the source calls inconclusive (neither active nor inactive); the mix of calls is not that of the screen. Calls come from the whole dose curve; as a rule, active = well fitted inhibition curve with a large enough effect; inconclusive = small, poorly fitted or top-dose-only effect; inactive = no such curve, though single readings can be large or run the other way. Potencies of inconclusive entries are doubtful fits and often do not repeat.

Amino acid sequences for entries named in this document (tags omitted). A change or cut given only in a name is not applied to a line headed by its entry.
UniProt O94782: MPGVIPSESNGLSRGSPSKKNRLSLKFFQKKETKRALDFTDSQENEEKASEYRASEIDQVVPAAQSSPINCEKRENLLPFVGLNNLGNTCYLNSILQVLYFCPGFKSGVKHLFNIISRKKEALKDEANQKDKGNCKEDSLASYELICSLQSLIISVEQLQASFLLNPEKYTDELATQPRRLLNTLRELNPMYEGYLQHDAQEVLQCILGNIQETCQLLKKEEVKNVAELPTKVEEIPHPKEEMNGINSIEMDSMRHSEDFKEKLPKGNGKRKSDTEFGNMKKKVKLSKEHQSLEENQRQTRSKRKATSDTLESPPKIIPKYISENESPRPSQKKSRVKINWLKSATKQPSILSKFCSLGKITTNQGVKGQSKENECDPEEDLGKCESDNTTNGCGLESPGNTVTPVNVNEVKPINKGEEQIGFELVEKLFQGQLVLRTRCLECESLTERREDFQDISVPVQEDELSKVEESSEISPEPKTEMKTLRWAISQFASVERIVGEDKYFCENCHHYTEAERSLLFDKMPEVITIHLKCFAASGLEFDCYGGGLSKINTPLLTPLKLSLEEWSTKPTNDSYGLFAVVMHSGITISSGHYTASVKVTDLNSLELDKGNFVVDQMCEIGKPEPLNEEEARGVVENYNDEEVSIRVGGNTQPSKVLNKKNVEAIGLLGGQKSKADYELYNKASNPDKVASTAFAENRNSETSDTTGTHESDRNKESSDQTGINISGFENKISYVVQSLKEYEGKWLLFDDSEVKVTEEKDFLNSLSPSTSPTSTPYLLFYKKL

Target: Ubiquitin carboxyl-terminal hydrolase 1 (Homo sapiens) (UniProt O94782)
Assay: Inhibitors of USP1/UAF1: Primary Screen; note: nearly all actives have a fitted effect of over 60% in size
Conditions: recombinant USP1/UAF1, Ub-Rhodamine cleavage fluorescence; series mostly up to 57.1 µM
Outline: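 USP1/UAF1 complex (1 nM) preincubated 15 min at room temperature with compound, then Ub-Rho substrate (150 nM final) added. Kinetic fluorescence at 480/540 nm over 6 reads at 60 s intervals; 50 mM HEPES pH 7.8, 0.5 mM EDTA, 0.1 mg/ml BSA, 1 mM TCEP, 0.01% Tween-20.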
Potency is the fitted concentration of half-maximal effect.

Structure (SMILES)	Potency
COc1cccc(C2CC(c3ccccc3)=NN2S(=O)(=O)c2ccc(C)cc2)c1OC (stereo not drawn)	inconclusive: 6.31 µM [inhibitor, full curve, poor fit]
CCOC(=O)Cc1ccc(NC(=O)NC(C)c2c(-n3cccc3)sc(C)c2C)cc1 (stereo not drawn)	inconclusive: 1.78 µM [inhibitor, full curve]
Cc1c(C(=O)Nc2cccc(S(=O)(=O)N3CCOCC3)c2)oc2ccc(Br)cc12	inconclusive: 3.16 µM [inhibitor, full curve, poor fit]
O=C(c1cccc([N+](=O)[O-])c1)N1CCN(c2ccc(Nc3ccccc3)nn2)CC1	inconclusive: 0.794 µM [inhibitor, full curve, poor fit]
CCCC1O[C@@H]2CC3C4CCC5=CC(=O)C=C[C@]5(C)C4C(OC(C)=O)C[C@]3(C)[C@]2(C(=O)COC(C)=O)O1 (stereo partly drawn)	inactive
Nc1ccc(Oc2ncccn2)cc1	active: 7.94 µM
Cc1ccc(C(=O)c2c3ccc([N+](=O)[O-])cc3[n+]([O-])n2CCC(N)=O)cc1	inconclusive: 14.1 µM [inhibitor, partial curve]
COc1ccccc1NC(=O)CN1C(=O)C(c2ccc(F)cc2)=NC12CCCCC2	inconclusive: 0.891 µM [inhibitor, full curve]
CC(C)(C)OC(=O)NCc1ccc(NC(=O)c2nc[nH]c2C(=O)N[C@@H](Cc2ccccc2)C(=O)OCc2ccccc2)cc1	inconclusive: 0.794 µM [inhibitor, full curve, poor fit]
COc1ccc(-c2cc(=O)c3c(O)cc(O[C@@H]4O[C@H](CO[C@@H]5O[C@@H](C)[C@H](O)[C@@H](O)[C@H]5O)[C@@H](O)[C@H](O)[C@H]4O)cc3o2)cc1O	inconclusive: 50.1 µM [inhibitor, partial curve, poor fit]
COc1cc(/C=C/C(=O)C2C(=O)C=C(C)OC2=O)cc(OC)c1O (stereo not drawn)	inactive
O=C(CNC(=O)c1cccs1)NCC(=O)OCc1cccc(Cl)c1	inconclusive: 7.08 µM [inhibitor, single point]
CCOc1cc(/C=C/c2ccc3cccc([N+](=O)[O-])c3n2)ccc1OCC(=O)N(C)C	inactive
CCOc1cc(S(=O)(=O)n2ccnc2)ccc1Br	inconclusive: 0.126 µM [inhibitor, full curve, poor fit]
CC(=O)Nc1ccc(S(=O)(=O)Nc2nnc(CC(C)(C)C)s2)cc1	inactive
CCOc1ccc(CN2CCN(Cc3cc4c(cc3Cl)OCO4)CC2CCO)cc1 (stereo not drawn)	inactive
CC[C@@H](C)C(NC(=O)OC(C)(C)C)c1cn([C@@H](CCCCNC(=O)OC(C)(C)C)C(=O)N2CCN(C(=O)OC(C)(C)C)CC2)nn1 (stereo partly drawn)	inconclusive: 50.1 µM [inhibitor, partial curve, poor fit]
CCc1c(Nc2ccccc2C)nc(N)[nH]c1=O	inconclusive: 44.7 µM [inhibitor, single point]
FC(F)(F)c1cnc(N2CCCN(C(=S)Nc3ccccc3)CC2)c(Cl)c1	inconclusive: 7.08 µM [inhibitor, single point]

Structure (SMILES)	Potency
CCOCCCNC(=O)c1ccc2c(=O)n(CCc3ccccc3)c(=O)[nH]c2c1	inconclusive: 0.282 µM [inhibitor, full curve, poor fit]
CCc1ccc2oc(-c3cc(NC(=O)c4cc(OC)c(OC)c(OC)c4)ccc3O)nc2c1	inactive
Cc1ccc(N2CCN(C(=O)c3cccn4c(=O)c5ccc(Cl)cc5nc34)CC2C)cc1 (stereo not drawn)	inconclusive: 0.708 µM [inhibitor, full curve, poor fit]
CCC(=O)N1CCc2cc(S(=O)(=O)NC(CC(C)C)C(=O)Nc3cccc(C)c3C)ccc21 (stereo not drawn)	inconclusive: 31.6 µM [inhibitor, single point]
O=C(CCc1ccccc1)NC1CC(=O)N(c2cccc(F)c2)C1 (stereo not drawn)	inconclusive: 0.631 µM [inhibitor, full curve, poor fit]
CC1=C(C(=O)Nc2cccnc2)C(c2ccccn2)n2nnnc2N1 (stereo not drawn)	inactive
COc1ccc(S(=O)(=O)N2CCN(CC(=O)NC3CCCC3)CC2)cc1	inconclusive: 0.251 µM [inhibitor, full curve, poor fit]
CCN(C(=O)COC(=O)c1c2c(nc3ccccc13)CCC2)c1c(N)n(Cc2ccccc2)c(=O)[nH]c1=O	inconclusive: 50.1 µM [inhibitor, partial curve, poor fit]
COC1=C(Nc2ccccc2)C(=O)c2ccccc2C1=O	inconclusive: 31.6 µM [inhibitor, partial curve]
Cc1ccccc1Nc1nn2c(=O)c3ccc(C(=O)NCc4cccs4)cc3nc2s1	inconclusive: 0.631 µM [inhibitor, full curve, poor fit]
N#Cc1c2c(c(-c3ccccc3Cl)[nH]c1=S)CCCC2	inactive
COc1ccc(C(CNC(=O)c2oc3cc(C)c(C)cc3c2C)N2CCCCC2)cc1 (stereo not drawn)	inconclusive: 6.31 µM [inhibitor, single point]
CCOc1ccccc1C(=O)Nc1cccc2ccccc12	inconclusive: 39.8 µM [inhibitor, partial curve]
Cc1ccc(-c2csc(NC(=O)c3ccco3)n2)cc1C	inconclusive: 89.1 µM [inhibitor, partial curve, poor fit]
CCc1ccc(NCc2cc3cc4c(cc3n(CC(=O)Nc3ccccc3C)c2=O)OCCO4)cc1	inconclusive: 35.5 µM [inhibitor, partial curve, poor fit]
Cc1ccccc1NC(=O)/C(C#N)=C/c1ccc(Cl)cc1Cl	inconclusive: 0.708 µM [inhibitor, full curve, poor fit]
Cc1cc(C(=O)Nc2cccc([N+](=O)[O-])c2)c(C)o1	inactive
CCOc1cc(/C=C(/C#N)C(=O)Nc2ccc(O)cc2)cc(Br)c1O	inconclusive: 39.8 µM [inhibitor, partial curve]
CCCCCC(=O)N1C[C@H](O)[C@@H](n2cc(-c3ccc(F)cc3)nn2)C[C@@H]1c1ccc(OC)cc1	inconclusive: 0.251 µM [inhibitor, full curve, poor fit]

An excerpt of these results, as comma-separated lines.
Structure (SMILES),Potency
CCOCCCNC(=O)c1ccc2c(=O)n(CCc3ccccc3)c(=O)[nH]c2c1,"inconclusive: 0.282 µM [inhibitor, full curve, poor fit]"
CCc1ccc2oc(-c3cc(NC(=O)c4cc(OC)c(OC)c(OC)c4)ccc3O)nc2c1,inactive

At a glance, 2 of the compounds above:
Structure (SMILES)	Potency
CCc1ccc2oc(-c3cc(NC(=O)c4cc(OC)c(OC)c(OC)c4)ccc3O)nc2c1	inactive
Cc1ccc(N2CCN(C(=O)c3cccn4c(=O)c5ccc(Cl)cc5nc34)CC2C)cc1 (stereo not drawn)	inconclusive: 0.708 µM [inhibitor, full curve, poor fit]
